# Experimental data as given in the supplement of paper PMC8728848.
# This is one part of the list.
# B1: HopZSSI-T (Helicobacter pylori), B5Z6D0 (protein)
# chain: MGSSHHHHHHSSGLVPRGSHMENLYFQGEDNGFFISAGYQIGEAAQMVKNTGELKKLSDTYENLSNLLTNFNNLNQAVTNASSPSEINAAIDNLKANTQGLTGEKTNSPAYQAVYLALNAAVGLWNVIAYNVQCGPGNSSQQSVTFEGQPGHNSSSINCNLTGYNNGVSGPLSIDNFKQLNQAYQVLQQALKQGVPVLNNTNQKIEVKVTTQTNGQSSKETTTTTTTNDAQTLLQEASKMIDVLTTNCPWVNHNPGQNGGAPWGLIRQECVSGFATEFSAVTSMIKNAQEIVTQAQSLNANQNNQNAPQDFNPYTSADRAFAQNMLNHAQAQAKILELADQMKKDLNTIPSQFITNYLAACRIDGTTPSQGVTNNTWGAGCAYVEETITALNNSLAHFGTQAEQIKQSELLARTILDFRGSLSTLNSTYNSITTTASNTPNSPFLKNLISQSTNPNNPGGLQAVYQVNQSAYSQLLSATQELGHNPFRRIGLISSQT
# Legend:
# Test in all cases: glycan array binding signal (z-score within array); higher = stronger binding
# Conditions in all cases: glycan notation: IUPAC condensed, linker removed
# [1] = target: Neu5Ac(a2-3)Gal(b1-4)GlcNAc(b1-6)GalNAc
# Procedure, shortened: (§1)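 Arrays were curated from the Consortium for Functional Glycomics database, 3228 in total, and kept only where the protein sequence was available. Binding is expressed as a within-array Z-score. This score was averaged across arrays of the same protein sequence at different concentrations or buffers and across linkers, and negative values can be read as non-binding.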
# [2] = target: Neu5Ac(a2-3)Gal(b1-4)GlcNAc(b1-6)[Gal(b1-3)]GalNAc
# Procedure, shortened: as §1
# [3] = target: Neu5Ac(a2-3)Gal(b1-4)GlcNAc(b1-6)[Neu5Ac(a2-3)Gal(b1-3)]GalNAc
# Procedure, shortened: as §1
# [4] = target: Neu5Ac(a2-3)Gal(b1-4)GlcNAc6S
# Procedure, shortened: as §1
# [5] = target: Neu5Ac(a2-3)Gal(b1-4)[Fuc(a1-3)]GlcNAc
# Procedure, shortened: as §1
# [6] = target: Neu5Ac(a2-3)Gal(b1-4)[Fuc(a1-3)]GlcNAc(b1-2)Man
# Procedure, shortened: as §1
# [7] = target: Neu5Ac(a2-3)Gal(b1-4)[Fuc(a1-3)]GlcNAc(b1-3)Gal
# Procedure, shortened: as §1
# [8] = target: Neu5Ac(a2-3)Gal(b1-4)[Fuc(a1-3)]GlcNAc(b1-3)Gal(b1-4)GlcNAc
# Procedure, shortened: as §1
# [9] = target: Neu5Ac(a2-3)Gal(b1-4)[Fuc(a1-3)]GlcNAc(b1-3)Gal(b1-4)[Fuc(a1-3)]GlcNAc(b1-3)Gal(b1-4)[Fuc(a1-3)]GlcNAc
# Procedure, shortened: as §1
# [10] = target: Neu5Ac(a2-3)Gal(b1-4)[Fuc(a1-3)]GlcNAc(b1-3)GalNAc
# Procedure, shortened: as §1
# [11] = target: Neu5Ac(a2-3)Gal(b1-4)[Fuc(a1-3)]GlcNAc(b1-6)[Gal(b1-3)]GalNAc
# Procedure, shortened: as §1
# [12] = target: Neu5Ac(a2-3)Gal(b1-4)[Fuc(a1-3)]GlcNAc(b1-6)[Neu5Ac(a2-3)Gal(b1-3)]GalNAc
# Procedure, shortened: as §1
# [13] = target: Neu5Ac(a2-3)Gal(b1-4)[Fuc(a1-3)]GlcNAc6S
# Procedure, shortened: as §1
# [14] = target: Neu5Ac(a2-3)Gal6S(b1-4)GlcNAc
# Procedure, shortened: as §1
# [15] = target: Neu5Ac(a2-3)Gal6S(b1-4)[Fuc(a1-3)]GlcNAc
# Procedure, shortened: as §1
# Neu5Ac(a2-3)GalNAc = target: Neu5Ac(a2-3)GalNAc
# Procedure, shortened: as §1
# [16] = target: Neu5Ac(a2-3)GalNAc(b1-4)GlcNAc
# Procedure, shortened: as §1
# [17] = target: Neu5Ac(a2-3)[GalNAc(b1-4)]Gal(b1-4)Glc
# Procedure, shortened: as §1
# [18] = target: Neu5Ac(a2-3)[GalNAc(b1-4)]Gal(b1-4)GlcNAc
# Procedure, shortened: as §1
# [19] = target: Neu5Ac(a2-3)[GalNAc(b1-4)]Gal(b1-4)GlcNAc(b1-3)GalNAc
# Procedure, shortened: as §1
# [20] = target: Neu5Ac(a2-3)[Neu5Ac(a2-6)]GalNAc
# Procedure, shortened: as §1
# Neu5Ac(a2-6)Gal = target: Neu5Ac(a2-6)Gal
# Procedure, shortened: as §1
# [21] = target: Neu5Ac(a2-6)Gal(b1-3)GlcNAc(b1-3)[Gal(b1-4)GlcNAc(b1-6)]Gal(b1-4)Glc
# Procedure, shortened: as §1
# Neu5Ac(a2-6)Gal(b1-4)Glc = target: Neu5Ac(a2-6)Gal(b1-4)Glc
# Procedure, shortened: as §1
# [22] = target: Neu5Ac(a2-6)Gal(b1-4)GlcNAc
# Procedure, shortened: as §1
# [23] = target: Neu5Ac(a2-6)Gal(b1-4)GlcNAc(b1-2)Man
# Procedure, shortened: as §1
# [24] = target: Neu5Ac(a2-6)Gal(b1-4)GlcNAc(b1-2)Man(a1-3)Man(b1-4)GlcNAc(b1-4)GlcNAc
# Procedure, shortened: as §1
# [25] = target: Neu5Ac(a2-6)Gal(b1-4)GlcNAc(b1-2)Man(a1-3)[Gal(b1-4)GlcNAc(b1-2)Man(a1-6)]Man(b1-4)GlcNAc(b1-4)GlcNAc
# Procedure, shortened: as §1
# [26] = target: Neu5Ac(a2-6)Gal(b1-4)GlcNAc(b1-2)Man(a1-3)[GlcNAc(b1-2)Man(a1-6)]Man(b1-4)GlcNAc(b1-4)GlcNAc
# Procedure, shortened: as §1
# [27] = target: Neu5Ac(a2-6)Gal(b1-4)GlcNAc(b1-2)Man(a1-3)[GlcNAc(b1-4)][Neu5Ac(a2-6)Gal(b1-4)GlcNAc(b1-2)Man(a1-6)]Man(b1-4)GlcNAc(b1-4)GlcNAc
# Procedure, shortened: as §1
# [28] = target: Neu5Ac(a2-6)Gal(b1-4)GlcNAc(b1-2)Man(a1-3)[Man(a1-6)]Man(b1-4)GlcNAc(b1-4)GlcNAc
# Procedure, shortened: as §1
# [29] = target: Neu5Ac(a2-6)Gal(b1-4)GlcNAc(b1-2)Man(a1-3)[Neu5Ac(a2-3)Gal(b1-4)GlcNAc(b1-2)Man(a1-6)]Man(b1-4)GlcNAc(b1-4)GlcNAc
# Procedure, shortened: as §1
# [30] = target: Neu5Ac(a2-6)Gal(b1-4)GlcNAc(b1-2)Man(a1-3)[Neu5Ac(a2-6)Gal(b1-4)GlcNAc(b1-2)Man(a1-6)]Man(b1-4)GlcNAc(b1-4)GlcNAc
# Procedure, shortened: as §1
# [31] = target: Neu5Ac(a2-6)Gal(b1-4)GlcNAc(b1-2)Man(a1-3)[Neu5Ac(a2-6)Gal(b1-4)GlcNAc(b1-2)Man(a1-6)]Man(b1-4)GlcNAc(b1-4)[Fuc(a1-6)]GlcNAc
# Procedure, shortened: as §1
# [32] = target: Neu5Ac(a2-6)Gal(b1-4)GlcNAc(b1-2)Man(a1-6)Man(b1-4)GlcNAc(b1-4)GlcNAc
# Procedure, shortened: as §1
# [33] = target: Neu5Ac(a2-6)Gal(b1-4)GlcNAc(b1-2)Man(a1-6)[Gal(b1-4)GlcNAc(b1-2)Man(a1-3)]Man(b1-4)GlcNAc(b1-4)GlcNAc
# Procedure, shortened: as §1
# [34] = target: Neu5Ac(a2-6)Gal(b1-4)GlcNAc(b1-2)Man(a1-6)[GlcNAc(b1-2)Man(a1-3)]Man(b1-4)GlcNAc(b1-4)GlcNAc
# Procedure, shortened: as §1
# [35] = target: Neu5Ac(a2-6)Gal(b1-4)GlcNAc(b1-2)Man(a1-6)[Man(a1-3)]Man(b1-4)GlcNAc(b1-4)GlcNAc
# Procedure, shortened: as §1
# [36] = target: Neu5Ac(a2-6)Gal(b1-4)GlcNAc(b1-2)[Neu5Ac(a2-6)Gal(b1-4)GlcNAc(b1-4)]Man(a1-3)[GlcNAc(b1-4)][Neu5Ac(a2-6)Gal(b1-4)GlcNAc(b1-2)[Neu5Ac(a2-6)Gal(b1-4)GlcNAc(b1-6)]Man(a1-6)]Man(b1-4)GlcNAc(b1-4)GlcNAc
# Procedure, shortened: as §1
# [37] = target: Neu5Ac(a2-6)Gal(b1-4)GlcNAc(b1-2)[Neu5Ac(a2-6)Gal(b1-4)GlcNAc(b1-4)]Man(a1-3)[GlcNAc(b1-4)][Neu5Ac(a2-6)Gal(b1-4)GlcNAc(b1-4)Man(a1-6)]Man(b1-4)GlcNAc(b1-4)GlcNAc
# Procedure, shortened: as §1
# [38] = target: Neu5Ac(a2-6)Gal(b1-4)GlcNAc(b1-2)[Neu5Ac(a2-6)Gal(b1-4)GlcNAc(b1-6)]Man(a1-6)[Neu5Ac(a2-6)Gal(b1-4)GlcNAc(b1-2)Man(a1-3)][GlcNAc(b1-4)]Man(b1-4)GlcNAc(b1-4)GlcNAc
# Procedure, shortened: as §1
# [39] = target: Neu5Ac(a2-6)Gal(b1-4)GlcNAc(b1-3)Gal(b1-3)GlcNAc
# Procedure, shortened: as §1
# [40] = target: Neu5Ac(a2-6)Gal(b1-4)GlcNAc(b1-3)Gal(b1-4)GlcNAc
# Procedure, shortened: as §1
# [41] = target: Neu5Ac(a2-6)Gal(b1-4)GlcNAc(b1-3)Gal(b1-4)GlcNAc(b1-2)Man(a1-3)[Neu5Ac(a2-6)Gal(b1-4)GlcNAc(b1-3)Gal(b1-4)GlcNAc(b1-2)Man(a1-6)]GalNAc
# Procedure, shortened: as §1
# [42] = target: Neu5Ac(a2-6)Gal(b1-4)GlcNAc(b1-3)Gal(b1-4)GlcNAc(b1-3)Gal(b1-4)GlcNAc
# Procedure, shortened: as §1
binder,measurement,setting,value
B1,glycan array binding signal (z-score),[1],-0.273
same,glycan array binding signal (z-score),[2],0.961
same,glycan array binding signal (z-score),[3],0.983
same,glycan array binding signal (z-score),[4],-0.26
same,glycan array binding signal (z-score),[5],-0.418
same,glycan array binding signal (z-score),[6],0.688
same,glycan array binding signal (z-score),[7],-0.519
same,glycan array binding signal (z-score),[8],0.553
same,glycan array binding signal (z-score),[9],0.645
same,glycan array binding signal (z-score),[10],0.654
same,glycan array binding signal (z-score),[11],0.675
same,glycan array binding signal (z-score),[12],-0.164
same,glycan array binding signal (z-score),[13],0.316
same,glycan array binding signal (z-score),[14],0.623
same,glycan array binding signal (z-score),[15],0.309
same,glycan array binding signal (z-score),Neu5Ac(a2-3)GalNAc,0.655
same,glycan array binding signal (z-score),[16],0.482
same,glycan array binding signal (z-score),[17],-0.883
same,glycan array binding signal (z-score),[18],-0.052
same,glycan array binding signal (z-score),[19],0.891
same,glycan array binding signal (z-score),[20],-0.484
same,glycan array binding signal (z-score),Neu5Ac(a2-6)Gal,0.007
same,glycan array binding signal (z-score),[21],-0.472
same,glycan array binding signal (z-score),Neu5Ac(a2-6)Gal(b1-4)Glc,-0.411
same,glycan array binding signal (z-score),[22],-0.343
same,glycan array binding signal (z-score),[23],-0.18
same,glycan array binding signal (z-score),[24],-0.42
same,glycan array binding signal (z-score),[25],-0.154
same,glycan array binding signal (z-score),[26],-0.288
same,glycan array binding signal (z-score),[27],-0.701
same,glycan array binding signal (z-score),[28],0.53
same,glycan array binding signal (z-score),[29],-0.456
same,glycan array binding signal (z-score),[30],-0.19
same,glycan array binding signal (z-score),[31],-0.442
same,glycan array binding signal (z-score),[32],-0.266
same,glycan array binding signal (z-score),[33],0.162
same,glycan array binding signal (z-score),[34],0.108
same,glycan array binding signal (z-score),[35],0.105
same,glycan array binding signal (z-score),[36],0.065
same,glycan array binding signal (z-score),[37],-0.179
same,glycan array binding signal (z-score),[38],-0.032
same,glycan array binding signal (z-score),[39],-0.157
same,glycan array binding signal (z-score),[40],-0.218
same,glycan array binding signal (z-score),[41],0.552
same,glycan array binding signal (z-score),[42],1.37

# 3 records drawn at random from the list so far, as already listed:
binder,measurement,setting,value
B1,glycan array binding signal (z-score),[4],-0.26
same,glycan array binding signal (z-score),Neu5Ac(a2-6)Gal(b1-4)Glc,-0.411
same,glycan array binding signal (z-score),[35],0.105
